From PubChem BioAssay AID1259415 (National Center for Advancing Translational Sciences (NCATS), 2018)
Where “and” joins values, the source holds several entries; their conditions need not be identical. Equal values may be shown once. Hit rate of the full screen: of about 410,000 compounds, about 18,000 (4.4%) were called active. Inconclusive means that the source gave no clear call. Such entries were picked first, then a sample of the others. No stated cut-off is given here; in the data, active means activity change below about -60%; inconclusive means no clear call, values can overlap the other calls; inactive means above about -39%.

Experiment: qHTS Assay for inhibitors of the human cytomegalovirus (HCMV)
Conditions: HFF cells, HCMV-luciferase reporter, 72 h; at 57.5 µM; stronger effect = lower value
Method in brief: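 HFF cells seeded 16 h at 37C, treated with compounds, infected with luciferase-reporter HCMV at MOI 1 PFU/cell; luciferase read at 72 h post infection, normalized to buffer-only and Salinomycin controls.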
On the % scale 0 is the no-effect control and ±100 the full control effect.

Compound | activity change, negative = inhibition
Cn1c(=O)c2c(ncn2CC(=O)N2CCN(C(=O)c3ccco3)CC2)n(C)c1=O | inactive: 10.6%
Cc1ccc(S(=O)(=O)c2cn(CC(=O)Nc3ccc4c(c3)OCO4)c3ccccc3c2=O)cc1 | inactive: 7.76%
Cc1cc(C)n2nc(C(=O)NCc3ccccc3)nc2n1 | inactive: -1.2%
Oc1ccc(/C=C/c2ccc3ccccc3n2)cc1 | active: -67.8%
N#Cc1ccc(CO/N=C/c2ccccc2)cc1 | inactive: -0.0156%
Cc1ccc2nc(N3CCN(Cc4ccc(F)cc4)C3=O)c(C)cc2c1 | inactive: -3.65%
O=C1c2ccc(Oc3ccc([N+](=O)[O-])cc3)cc2C(=O)N1CCCO | inconclusive: -40.9%
O=[N+]([O-])c1ccc(S(=O)(=O)Nc2ccc(-c3ccc(N4CCOCC4)nn3)cc2)cc1 | inconclusive: -52.8%
Cc1ccc(S(=O)(=O)Oc2ccccc2/C=N/N=C(N)N)cc1 | inconclusive: -54.1%
CCOC(=O)c1cccc(NC(=O)C2CCCN(S(=O)(=O)c3ccc4c(c3)oc(=O)n4C)C2)c1 (centres undefined) | inactive: -16.3%
CCc1ccc(NC(=O)C(C)n2nnc3sc(-c4ccccc4)cc3c2=O)cc1 (centres undefined) | inactive: -4.17%
CCOc1ccc(Nc2ncnc3c2cnn3Cc2ccccc2)cc1 | inconclusive: -49.6%
COc1ccccc1CNC(=O)CN1C(=O)COc2ccc(S(=O)(=O)N3CCC(C)CC3)cc21 | inactive: -2.98%
O=C(Nc1ccc(F)cc1)N1CCC(c2nc3c(nnn3Cc3cccc(Cl)c3)c(=O)[nH]2)CC1 | inconclusive: -59.3%
CCc1cc(Cn2nc(-c3ccccc3)cc2C(=O)NCc2ccc(C)cc2)on1 | inactive: -21.4%
O=[N+]([O-])c1cc(Cl)cc2c1nc(NCCO)c1ccccc12 | active: -94.9%
CCOC(=O)c1c(-c2ccccc2)csc1NC(=O)c1cc(-c2ccc(Br)cc2)on1 | inactive: 10.4%
COc1ccc(-c2[nH]ncc2CN2CCC(C(=O)N3CCOCC3)CC2)c(F)c1 | active: -62.9%
O=C(/C=C/c1ccncc1)c1cc(Cl)ccc1O | inconclusive: -48.7%
Cc1nnc(SCc2cc(=O)[nH]c(/N=C(\N)Nc3ccccc3Sc3ccccc3)n2)s1 | inconclusive: -52.6%
COc1ccc(CNC(=O)c2nc(SC(C)C)ncc2Cl)cc1 | inactive: 17.9%

Compound | activity change, negative = inhibition
COc1cc(OC)cc(C(=O)Oc2c(CN3CCOCC3)cc(Cl)c3cccnc23)c1 | inconclusive: -50.4%
CC1CCN(c2ccc([N+](=O)[O-])cc2C(=O)O)CC1 | inconclusive: -42.5%
O=C(O)CC1Oc2ccc(Cl)cc2NC1=O (centres undefined) | inactive: 16.7%
CCOC(=O)C1(Cc2ccccc2C)CCCN(S(=O)(=O)c2cccnc2)C1 (centres undefined) | active: -92.5%
COc1cc(Nc2ncc3c(n2)CCN(C(=O)Nc2ccc(C(C)C)cc2)C3)cc(OC)c1OC | inconclusive: -52.9%
CC(C)Oc1ccc(F)cc1-c1cc(C(=O)Nc2ccc(C(C)(C)C)cc2)[nH]n1 | inconclusive: -50.3%
CCOc1ccc(NCc2cccn2-c2nnc(N3CCC(C(=O)NCCCN4CCCCC4C)CC3)s2)cc1 (centres undefined) | active: -66.3%
CC(C)(C)OC(=O)N1CCC(NC(=O)c2nc[nH]c2C(=O)N2CCc3ccccc3C2)CC1 | inconclusive: -40.6%
Cc1ccc(NC(=O)Cn2ccc([N+](=O)[O-])n2)cc1C | inconclusive: -59.9%
CC(C)CC[n+]1ccccc1/C=C/c1ccc(N(C)C)cc1 | active: -102%
COC(=O)CSc1nnc2n(C3CCCCC3)c(=O)c3c4c(sc3n12)CCCC4 | inconclusive: -41.2%
O=C(c1ccc(Cl)cc1)N1CCn2c1nc1ccccc12 | inconclusive: -43.9%
Cc1cc(C)c(OCCCCN(C)C)c(Br)c1 | inactive: -24.8%
Cc1cc(C)c2[nH]c(=O)c(CN(Cc3ccccc3)C(=S)NCCCN(C)C)cc2c1 | inconclusive: -44.3%
Cc1ccc(-n2ncc3c2CCCC3NC(=O)CCc2c(C)noc2C)cc1C (centres undefined) | inconclusive: -57.6%
Cc1cc2c(c(=O)n1CCc1ccccc1)C(C(C)C)C(C#N)=C(N)O2 (centres undefined) | inconclusive: -41.7%
COc1ccc(Oc2c(O)c3ccccc3n(C)c2=O)cc1 | inconclusive: -55.3%
O=C1CN=C(c2ccccc2)c2cc(Br)ccc2N1Cc1cc(=O)n2ccccc2n1 | inconclusive: -49.2%
CC(C)C[C@H]1CNC(=S)N1C[C@H]1CCCN1C[C@H](CC(C)C)N1C[C@H](Cc2ccc(O)cc2)N(CC2CCCCCC2)C1=S | active: -101%
CC1CCN(C(=O)CSc2c(C(C)C)cnc3c2c(=O)n(C)c(=O)n3C)CC1 | inconclusive: -42.9%
Cc1ccc(-n2nc(CO)c(C(=O)NC(C)CCCc3ccccc3)n2)cc1C (centres undefined) | inconclusive: -45.9%

Taken from the listing, 4 compounds:
Compound | activity change, negative = inhibition
Cc1cc(C)c(OCCCCN(C)C)c(Br)c1 | inactive: -24.8%
Cc1cc(C)c2[nH]c(=O)c(CN(Cc3ccccc3)C(=S)NCCCN(C)C)cc2c1 | inconclusive: -44.3%
Cc1ccc(-n2ncc3c2CCCC3NC(=O)CCc2c(C)noc2C)cc1C (centres undefined) | inconclusive: -57.6%
Cc1cc2c(c(=O)n1CCc1ccccc1)C(C(C)C)C(C#N)=C(N)O2 (centres undefined) | inconclusive: -41.7%

Following part.

Compound | activity change, negative = inhibition
O=C(O)c1ccc(N2CC3CC(C2)c2cccc(=O)n2C3)c(NC(=S)Nc2ccc(Br)cc2)c1 (centres undefined) | inconclusive: -44.2%
COc1cccc(-n2cnc(=O)c3cccnc32)c1 | inconclusive: -40.5%
Cc1ccc(O)c(NC(=O)c2ccc(Br)c(S(=O)(=O)N3CCCCC3)c2)c1 | active: -73.2%
Cc1ccc(OCC(=O)c2cc(C)n(-c3ccccc3)c2C)c([N+](=O)[O-])n1 | active: -98.6%
COc1ccc2cc(OCC(=O)NNC(=O)Nc3ccc(C(C)=O)cc3)ccc2c1 | inactive: 51.5%
CCC(c1nnnn1C1CCCCC1)N(Cc1ccco1)Cc1cc2ccc(OC)cc2[nH]c1=O (centres undefined) | inconclusive: -53.7%
O=C(Nc1ccc(OCC(F)(F)C(F)F)cc1)c1ccncc1 | active: -63.3%
O=C(O)c1ccc2cccnc2n1 | inconclusive: -41.3%
CC(C)CNC(=S)Nc1ccc(F)cc1 | inconclusive: -45.3%
C=C(C)COc1ccc(-c2ncncc2-c2ccccc2OC)c(O)c1 | active: -69.4%
CCN(CC)CCCNC(=O)c1cn(CC)c2ccc(S(=O)(=O)N3CCc4ccccc4C3)cc2c1=O | inconclusive: -53.8% and inconclusive: -46.5%
Cc1cc(=O)[nH]c(Nc2cccc(C(F)(F)F)c2)n1 | inconclusive: -44.8%
O=C1NC(=S)NC(=O)C1=Cc1ccc(Br)s1 | active: -100%
O=S(=O)(c1ccc(F)c(Cl)c1)N1CCCC1 | inactive: -23.1%
C=C(C)COc1ccc(-c2[nH]ncc2-c2ccc(OC)cc2)c(O)c1 | active: -70.5%
Cc1ccc(CN2CCN(C3CCN(C(=O)c4ccccc4)CC3)C(=O)C2=O)cc1 | inconclusive: -47.5%
COc1ccc(C)cc1NC(=O)Cn1c(=O)cc(C)c2c(C)nn(C)c21 | inconclusive: -41.9%
Cc1ccc(NC(=O)[C@@H]2CCCN2C(=O)c2cccs2)cc1S(=O)(=O)N1CCCCC1 | inactive: -21.2%
O=S(=O)(c1ccccc1)c1nc(-c2ccc(Cl)cc2Cl)oc1N1CCCCC1 | inconclusive: -53.7%
CN1/C(=C/C=C/c2n(C)c3cc([N+](=O)[O-])c([N+](=O)[O-])cc3[n+]2C)C(C)(C)c2ccccc21 | active: -67.2%
CC(=O)NNc1nc(-c2ccc(C)cc2)cs1 | inactive: -11.1%

Compound | activity change, negative = inhibition
CC1CCN(C(=O)Cn2c(=O)n(Cc3ccco3)c(=O)c3sccc32)CC1 | inactive: -4.66%
COc1ccc(CN(C)c2ccc(S(=O)(=O)N3CCN(C)CC3)cc2[N+](=O)[O-])cc1OC | active: -85.9%
COc1ccc(C(=O)Oc2c(CN3CCOCC3)cc(Cl)c3cccnc23)cc1 | active: -75.1%
CCC(C)N=Cc1c(Nc2ccccc2)nc2c(C)cccn2c1=O (centres undefined) | inconclusive: -59.1%
O=C(O)CCCN1C(=O)/C(=C\C(Cl)=C\c2ccccc2)SC1=S | active: -99.3%
CC(C)(C)c1ccc(C(=O)NCCC(=O)NCc2ccc(F)cc2)cc1 | active: -82.2%
CC(C)COc1ccc(C(=O)N/N=C/c2ccoc2)cc1 | inactive: 34.9%
Cc1ccc(N(CC(=O)NCc2ccc(F)cc2)S(=O)(=O)c2c(C)nn(C)c2C)cc1 | inactive: -4.29% and inactive: 46.4%
CCc1cccc(C)c1NC(=O)c1cc(S(=O)(=O)NCc2ccccc2Cl)ccc1F | inconclusive: -53%
Cc1cc(-c2nc3cc(F)ccc3s2)ccc1N | inactive: 68.8%
CCCn1c2ccccc2c2cnn(CC(=O)N(C)c3ccccc3CC)c(=O)c21 | inconclusive: -51.6%
CCOC(=O)c1c(S(=O)(=O)NCC(=O)N2CCN(c3ccccc3)CC2)c(C)n(C)c1C | inactive: -1.84% and inactive: 24.7%
COc1ccccc1CNC(=O)CCn1c(=O)c2ccccc2n(CC(=O)Nc2ccc(C)cc2Cl)c1=O | inactive: -36.2%
CCOc1cc(/C=N/Nc2cc(C)nc(-n3nc(C)cc3C)n2)ccc1O | active: -77.7%
Cc1cccc(C)c1NC(=O)CNC(=O)c1cnccn1 | inconclusive: -43.8%
CCc1ccc(-c2cc(C)no2)cc1S(=O)(=O)N1CC(=O)Nc2ccccc21 | inconclusive: -41.4%
Fc1ccc(NC(=S)N2CCN(c3cccc(C(F)(F)F)c3)CC2)cc1 | inconclusive: -54.6%
Cc1ccc(NS(=O)(=O)c2ccc3[nH]c(=O)oc3c2)c(C)c1 | inactive: -34.3% and inconclusive: 0%
COc1cc(OC)c(C(=O)C=Cc2ccc(OC)c(OC)c2)c(OC)c1 | inconclusive: -56.7%
Cc1cc(C)nc(Sc2ncnc(N)c2[N+](=O)[O-])n1 | inconclusive: -41%
O=C(CCCCn1c(=O)c2ccccc2n(Cc2ccc(F)cc2)c1=O)NCc1ccco1 | inactive: -38.5%
